Measurements: paper doi:10.1101/2024.12.01.626218

By UniProt entry, the sequences of proteins in these tests, tags left out. Where a name states a change or a piece, a line headed by the entry shows the natural chain unless it says otherwise.
UniProt Q8VIG6: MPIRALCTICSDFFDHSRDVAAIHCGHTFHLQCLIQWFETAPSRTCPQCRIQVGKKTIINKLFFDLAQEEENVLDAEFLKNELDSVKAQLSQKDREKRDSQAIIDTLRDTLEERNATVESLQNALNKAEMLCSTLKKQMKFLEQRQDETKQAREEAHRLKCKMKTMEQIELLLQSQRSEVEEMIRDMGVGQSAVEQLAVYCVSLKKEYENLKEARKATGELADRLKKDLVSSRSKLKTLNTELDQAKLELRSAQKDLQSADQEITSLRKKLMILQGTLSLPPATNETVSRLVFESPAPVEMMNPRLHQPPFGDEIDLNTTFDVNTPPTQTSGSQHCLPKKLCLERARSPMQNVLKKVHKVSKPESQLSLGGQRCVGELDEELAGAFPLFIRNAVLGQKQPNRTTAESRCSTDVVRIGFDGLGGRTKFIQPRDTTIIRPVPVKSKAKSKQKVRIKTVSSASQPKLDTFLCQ

Molecular target: TRAIP-5FLAG with TRAIP-T325 mutated (mouse) (UniProt Q8VIG6)
Test: co-IP

binding: no binding
B1: TTF2 (Transcription Termination Factor 2) (enzyme, UniProt Q5NC05 1-1138)
chain: MDLVKCPEHGDACFLKTGVRDGPNKGKSFYVCRTNTCGFVQATDIPVSHCLLHEEFVVELQGLFLPQDKKEWRLFFRCARTKAEGKQWCGNVPWRQDPNPKELSVTSKPQQPSESQLHSPSQPRNPFRVLNKNQKTLERKQFVEEGERKTADKKLRENNEQLLDQRKEQKPKSNSRMEKDPSSDLVATRQSGGDREEQEKSKFQPKTKKAEGMASKQGHGEVLQGIPKGPHMSESESRGVPNKPETLREKETQLLVPSVPGQNPESKVQKEGHVSREPLKNGEAPSAQVTQRGLAQGPLQGPSKTWRPVPEAPAAPELCSGMAHHATSSSEDSEDDGVSSRPGSPLLFDSTVDSQKKGSLQHSDQSVQRQMPAASGVSKKGDSSDPAAQRANLTTQLKQKKGTLAAVNIQALPDKGEKLLKQIQALEDALSALALSPEQGTKEKCSAQEPEQSNITKAAAAPLHLVPPQPLPRPLIQPASSLGLKAGRQETPEGASQCSGGHMNQHHLYNVWKITSEAIDELHRSLKSCPGETAVAEDPAGLKVPLLLHQKQALAWLLWRESQKPQGGILADDMGLGKTLTMIALILTKKNQQKSKEKERSEPVTWLSKNDSSVFTSSGTLIVCPASLIHHWKNEVEKRVTSNRLRIYLYHGPNRSRHAKVLSTYDIVITTYSLLAKEIPTTKQEGEVPGANLSVEGTSAPLLQVVWARIILDEAHNVKNPRVQTSIAVCKLQAQARWAVTGTPIQNNLLDMYSLMKFLRCSPFDEFSLWKSQVDNGSMKGGERLSILTKSLLLRRTKDQLDSTGKPLVALPARRCQLHRLKLSEDERAVYDIFLARSRSALQSYLKRQEGRGSHHGRSPDNPFSRVAQEFGSSVSQGCPAADSQRPSTVHVLSQLLRLRQCCCHLSLLKSALDPTELESEGLVLSLEEQLSALTLSKVDVSEPSPTVSLNGTCFKAELFDDTRRSTKVSSLLAELEAIQKGPGSQKSVIVSQWTSMLQVVALHLKKNRLTYATIDGSVNPKQRMDLVEAFNHSQGPQVMLISLLAGGVGLNLTGGNHLFLLDMHWNPSLEDQACDRIYRVGQKKDVVIHRFVCEGTVEEKILQLQEKKKDLAKQVLSGSEGPVTKLTLADLKILFGI

These are yes or no findings as the source states them, for the method shown. Binding seen in cells or lysates may run through a third protein.
